Results as given in the supplement of paper PMC10849652.
This is one part of the list.

Sequences of proteins named here, by UniProt entry; tags and fusion partners are left off. A change or cut given only in a name is not applied to a line headed by its entry.
UniProt Q9NQT4, whole entry, looked up: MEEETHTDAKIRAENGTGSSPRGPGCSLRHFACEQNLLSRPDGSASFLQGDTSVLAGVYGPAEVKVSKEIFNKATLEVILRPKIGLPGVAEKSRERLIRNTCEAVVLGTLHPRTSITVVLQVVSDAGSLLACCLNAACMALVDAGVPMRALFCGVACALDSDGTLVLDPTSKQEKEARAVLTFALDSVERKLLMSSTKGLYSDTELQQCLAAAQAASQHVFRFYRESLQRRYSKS
UniProt P00742, whole entry, looked up: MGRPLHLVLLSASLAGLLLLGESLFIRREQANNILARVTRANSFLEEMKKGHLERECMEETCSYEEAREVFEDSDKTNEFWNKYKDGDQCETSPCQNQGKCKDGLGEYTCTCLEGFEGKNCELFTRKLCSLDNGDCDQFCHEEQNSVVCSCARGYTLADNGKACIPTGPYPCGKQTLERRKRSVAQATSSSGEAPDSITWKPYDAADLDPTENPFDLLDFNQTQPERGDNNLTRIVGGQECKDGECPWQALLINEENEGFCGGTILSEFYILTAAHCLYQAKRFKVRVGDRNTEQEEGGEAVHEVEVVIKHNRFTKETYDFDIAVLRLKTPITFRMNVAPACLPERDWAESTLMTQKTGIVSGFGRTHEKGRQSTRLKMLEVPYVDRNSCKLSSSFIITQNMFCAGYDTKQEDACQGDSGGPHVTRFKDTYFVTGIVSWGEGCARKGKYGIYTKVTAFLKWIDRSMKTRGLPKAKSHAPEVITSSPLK
UniProt Q9UF33: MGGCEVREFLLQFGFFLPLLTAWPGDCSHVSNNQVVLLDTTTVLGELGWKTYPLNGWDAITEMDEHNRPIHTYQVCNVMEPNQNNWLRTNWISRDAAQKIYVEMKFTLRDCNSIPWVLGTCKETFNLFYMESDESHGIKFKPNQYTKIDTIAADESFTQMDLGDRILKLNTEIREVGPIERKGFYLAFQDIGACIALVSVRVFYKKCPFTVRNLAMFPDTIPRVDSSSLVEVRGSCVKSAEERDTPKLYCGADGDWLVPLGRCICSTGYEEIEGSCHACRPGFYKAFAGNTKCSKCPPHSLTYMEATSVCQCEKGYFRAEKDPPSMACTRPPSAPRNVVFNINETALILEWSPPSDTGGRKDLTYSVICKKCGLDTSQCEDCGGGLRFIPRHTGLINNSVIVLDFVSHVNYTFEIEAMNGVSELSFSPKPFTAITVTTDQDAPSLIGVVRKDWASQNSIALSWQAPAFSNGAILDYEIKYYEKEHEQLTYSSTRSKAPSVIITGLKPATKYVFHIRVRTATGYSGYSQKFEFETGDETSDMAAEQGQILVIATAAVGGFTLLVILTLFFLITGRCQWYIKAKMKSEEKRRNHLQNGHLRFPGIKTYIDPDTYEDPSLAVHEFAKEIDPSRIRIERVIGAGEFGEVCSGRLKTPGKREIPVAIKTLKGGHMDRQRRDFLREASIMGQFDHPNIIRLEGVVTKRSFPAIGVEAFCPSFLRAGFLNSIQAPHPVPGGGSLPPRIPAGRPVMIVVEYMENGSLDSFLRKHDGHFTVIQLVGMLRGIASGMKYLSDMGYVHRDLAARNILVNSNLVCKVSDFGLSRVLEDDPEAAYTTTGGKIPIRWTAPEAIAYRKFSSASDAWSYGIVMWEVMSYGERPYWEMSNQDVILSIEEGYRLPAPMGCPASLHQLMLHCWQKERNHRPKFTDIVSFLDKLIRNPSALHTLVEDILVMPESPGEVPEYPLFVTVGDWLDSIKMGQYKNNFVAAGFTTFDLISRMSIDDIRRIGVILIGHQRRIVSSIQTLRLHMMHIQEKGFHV
UniProt Q15910, whole entry, looked up: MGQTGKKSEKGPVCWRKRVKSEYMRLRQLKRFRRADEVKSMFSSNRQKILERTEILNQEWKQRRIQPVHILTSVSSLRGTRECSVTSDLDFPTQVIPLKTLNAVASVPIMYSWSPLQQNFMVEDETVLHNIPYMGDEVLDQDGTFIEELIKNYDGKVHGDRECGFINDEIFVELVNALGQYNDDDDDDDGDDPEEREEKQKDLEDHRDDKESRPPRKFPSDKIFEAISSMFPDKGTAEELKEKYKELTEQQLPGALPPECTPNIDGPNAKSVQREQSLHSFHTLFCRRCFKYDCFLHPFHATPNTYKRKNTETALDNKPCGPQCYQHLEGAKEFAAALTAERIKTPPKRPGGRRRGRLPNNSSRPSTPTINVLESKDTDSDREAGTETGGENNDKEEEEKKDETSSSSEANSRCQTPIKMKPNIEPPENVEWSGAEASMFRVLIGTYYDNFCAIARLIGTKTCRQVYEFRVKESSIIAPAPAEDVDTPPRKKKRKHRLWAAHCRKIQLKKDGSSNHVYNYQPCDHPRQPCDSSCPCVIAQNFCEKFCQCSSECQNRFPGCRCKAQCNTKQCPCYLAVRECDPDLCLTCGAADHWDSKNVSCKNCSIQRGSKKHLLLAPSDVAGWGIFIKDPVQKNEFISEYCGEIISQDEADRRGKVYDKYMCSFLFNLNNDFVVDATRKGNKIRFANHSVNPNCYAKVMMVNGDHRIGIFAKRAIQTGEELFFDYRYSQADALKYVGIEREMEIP
UniProt Q7Z309: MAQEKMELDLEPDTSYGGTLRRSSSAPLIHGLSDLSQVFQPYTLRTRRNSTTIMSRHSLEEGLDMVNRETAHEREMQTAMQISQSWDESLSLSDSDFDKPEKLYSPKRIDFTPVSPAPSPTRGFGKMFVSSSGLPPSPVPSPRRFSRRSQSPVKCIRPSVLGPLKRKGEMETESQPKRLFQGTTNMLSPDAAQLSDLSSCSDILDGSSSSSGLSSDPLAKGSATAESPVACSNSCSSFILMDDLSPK
UniProt Q86YB8: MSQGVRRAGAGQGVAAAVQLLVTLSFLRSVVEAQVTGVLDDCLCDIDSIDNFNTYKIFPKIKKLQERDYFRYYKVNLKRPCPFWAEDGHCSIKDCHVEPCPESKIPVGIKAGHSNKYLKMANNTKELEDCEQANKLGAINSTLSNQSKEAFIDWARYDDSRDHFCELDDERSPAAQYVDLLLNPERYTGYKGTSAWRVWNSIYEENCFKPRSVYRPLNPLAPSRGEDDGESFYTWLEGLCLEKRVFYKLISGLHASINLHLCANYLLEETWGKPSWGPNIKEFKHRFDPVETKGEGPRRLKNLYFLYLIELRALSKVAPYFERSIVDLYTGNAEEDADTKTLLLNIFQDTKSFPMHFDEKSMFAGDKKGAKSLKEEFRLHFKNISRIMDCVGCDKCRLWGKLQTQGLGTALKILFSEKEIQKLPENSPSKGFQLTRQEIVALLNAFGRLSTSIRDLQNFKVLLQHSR
UniProt P50548: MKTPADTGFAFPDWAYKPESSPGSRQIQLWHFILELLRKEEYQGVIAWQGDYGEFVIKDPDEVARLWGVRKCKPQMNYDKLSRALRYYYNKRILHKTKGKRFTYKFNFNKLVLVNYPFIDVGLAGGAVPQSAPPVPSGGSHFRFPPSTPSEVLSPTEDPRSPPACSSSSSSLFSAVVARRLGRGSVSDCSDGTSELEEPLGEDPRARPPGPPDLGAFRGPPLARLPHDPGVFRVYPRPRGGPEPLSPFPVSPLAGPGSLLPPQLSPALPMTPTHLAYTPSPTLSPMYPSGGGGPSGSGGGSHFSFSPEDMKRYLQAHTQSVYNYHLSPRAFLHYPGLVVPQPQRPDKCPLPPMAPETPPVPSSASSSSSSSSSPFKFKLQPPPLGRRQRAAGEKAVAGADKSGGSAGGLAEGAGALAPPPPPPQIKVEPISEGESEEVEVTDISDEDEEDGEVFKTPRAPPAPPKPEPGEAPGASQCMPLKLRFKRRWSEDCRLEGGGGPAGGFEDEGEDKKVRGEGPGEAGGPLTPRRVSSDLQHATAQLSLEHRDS
UniProt Q8IV48: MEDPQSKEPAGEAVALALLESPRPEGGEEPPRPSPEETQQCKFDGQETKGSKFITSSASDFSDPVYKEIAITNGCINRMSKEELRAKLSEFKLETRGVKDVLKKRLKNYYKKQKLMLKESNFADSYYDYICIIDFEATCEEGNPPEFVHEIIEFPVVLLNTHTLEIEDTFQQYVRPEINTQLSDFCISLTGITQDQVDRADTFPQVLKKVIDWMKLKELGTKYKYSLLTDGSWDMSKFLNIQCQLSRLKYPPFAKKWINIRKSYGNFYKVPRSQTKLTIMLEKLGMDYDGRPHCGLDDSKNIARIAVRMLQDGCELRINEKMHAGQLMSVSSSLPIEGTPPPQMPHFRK
UniProt Q9H8W3: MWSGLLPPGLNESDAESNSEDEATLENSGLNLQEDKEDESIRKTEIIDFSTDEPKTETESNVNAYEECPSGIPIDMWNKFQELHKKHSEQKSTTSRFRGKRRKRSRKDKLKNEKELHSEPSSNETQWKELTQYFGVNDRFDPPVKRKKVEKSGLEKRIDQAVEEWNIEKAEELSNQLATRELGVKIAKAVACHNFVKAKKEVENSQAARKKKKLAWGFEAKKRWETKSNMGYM
UniProt P07992: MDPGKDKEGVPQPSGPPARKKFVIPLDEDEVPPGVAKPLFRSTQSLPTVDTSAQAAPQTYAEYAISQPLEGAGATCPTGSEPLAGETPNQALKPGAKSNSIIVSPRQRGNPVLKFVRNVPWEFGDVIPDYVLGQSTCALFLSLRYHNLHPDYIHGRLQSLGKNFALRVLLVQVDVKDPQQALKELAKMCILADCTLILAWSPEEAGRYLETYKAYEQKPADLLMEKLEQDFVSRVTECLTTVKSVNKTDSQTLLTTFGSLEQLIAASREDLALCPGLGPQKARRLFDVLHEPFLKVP
UniProt Q8WUF8: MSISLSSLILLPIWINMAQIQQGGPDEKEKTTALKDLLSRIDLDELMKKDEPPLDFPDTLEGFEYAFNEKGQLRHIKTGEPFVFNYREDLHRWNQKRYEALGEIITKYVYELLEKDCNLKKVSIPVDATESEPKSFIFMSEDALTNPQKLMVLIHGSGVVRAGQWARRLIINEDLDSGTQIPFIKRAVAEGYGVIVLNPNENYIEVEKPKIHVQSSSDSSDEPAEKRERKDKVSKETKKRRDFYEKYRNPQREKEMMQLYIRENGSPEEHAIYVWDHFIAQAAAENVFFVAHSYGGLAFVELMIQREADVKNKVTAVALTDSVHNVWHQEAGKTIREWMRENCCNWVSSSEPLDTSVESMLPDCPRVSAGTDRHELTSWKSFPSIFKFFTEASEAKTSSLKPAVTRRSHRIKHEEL
UniProt P84090, whole entry, looked up: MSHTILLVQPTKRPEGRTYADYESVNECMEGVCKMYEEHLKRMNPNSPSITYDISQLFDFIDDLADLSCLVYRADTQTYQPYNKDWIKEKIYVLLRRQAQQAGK
UniProt Q96RI0: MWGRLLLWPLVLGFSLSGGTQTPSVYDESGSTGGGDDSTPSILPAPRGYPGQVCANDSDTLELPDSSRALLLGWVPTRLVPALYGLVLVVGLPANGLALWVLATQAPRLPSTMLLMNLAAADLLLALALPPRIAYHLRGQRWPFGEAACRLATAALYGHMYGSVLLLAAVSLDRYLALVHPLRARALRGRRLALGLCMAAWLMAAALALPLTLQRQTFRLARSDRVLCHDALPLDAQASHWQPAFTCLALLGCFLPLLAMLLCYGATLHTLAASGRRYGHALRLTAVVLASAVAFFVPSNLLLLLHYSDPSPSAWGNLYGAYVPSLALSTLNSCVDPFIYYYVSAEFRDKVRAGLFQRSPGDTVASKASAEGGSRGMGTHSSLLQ
UniProt Q8N0U4: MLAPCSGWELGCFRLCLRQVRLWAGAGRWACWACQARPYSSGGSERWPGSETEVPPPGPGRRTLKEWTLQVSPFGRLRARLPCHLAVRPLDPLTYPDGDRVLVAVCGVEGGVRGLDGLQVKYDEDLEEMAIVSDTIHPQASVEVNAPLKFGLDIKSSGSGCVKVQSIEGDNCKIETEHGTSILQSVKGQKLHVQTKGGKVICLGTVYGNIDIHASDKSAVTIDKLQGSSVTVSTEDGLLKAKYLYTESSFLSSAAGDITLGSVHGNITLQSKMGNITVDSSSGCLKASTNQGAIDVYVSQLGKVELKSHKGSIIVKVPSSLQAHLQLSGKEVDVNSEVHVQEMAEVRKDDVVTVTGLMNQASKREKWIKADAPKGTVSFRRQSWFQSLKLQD
UniProt Q13216, whole entry, looked up: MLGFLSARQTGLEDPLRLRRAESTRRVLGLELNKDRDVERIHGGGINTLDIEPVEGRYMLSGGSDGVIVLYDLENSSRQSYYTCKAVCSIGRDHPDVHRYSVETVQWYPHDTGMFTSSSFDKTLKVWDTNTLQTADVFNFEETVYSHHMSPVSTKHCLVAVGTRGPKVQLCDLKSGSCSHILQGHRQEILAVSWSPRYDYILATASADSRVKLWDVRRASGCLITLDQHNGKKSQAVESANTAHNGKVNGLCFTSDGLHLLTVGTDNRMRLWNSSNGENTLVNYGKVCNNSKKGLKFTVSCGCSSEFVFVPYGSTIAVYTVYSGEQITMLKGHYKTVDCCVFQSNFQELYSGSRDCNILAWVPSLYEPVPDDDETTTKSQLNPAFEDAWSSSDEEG

Experiments:
Assay in all cases: log2 fold change, soluble protein after heating vs DMSO (PISA); higher = thermal stabilisation; K562 cells, 10 uM, 30 min; active = over 0.2 and 3.5 SD of the protein, either way, in both replicates (recomputed)
[1] = compound: CC1=C(C=C(C=C1)NC(=O)C2=CC(=CC=C2)C(C)(C)C#N)NC3=CC4=C(C=C3)N=CN(C4=O)C
In short: (§1)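 Quantification of soluble protein used TMTpro 16plex LC-MS/MS, with channel sums equalised. Samples were the supernatant after 21,000xg for 90 min of pooled aliquots from K562 cells (2×10^6 cells/mL) treated with 10 μM compound for 30 min, heated for 3 min over 48°C-58°C, and extracted in PBS with 0.5% NP-40 at 4°C. Values, from duplicates, describe thermal stability against control samples on a log2 fold-change scale.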

[2] = compound: CC1=C(C=C(C=C1)NC(=O)C2=CC(=CC=C2)N(C)C)NC(=O)C3=CC=C(C=C3)O
In short: as §1

[3] = compound: CC1=CC=C(C=C1)SC2=C3C=C(SC3=CN=C2)C(=O)N
In short: as §1

[4] = compound: CC1=NC(=CC=C1)C2=C(N=C(N2)C(C)(C)C)C3=CC4=NC=CN=C4C=C3
In short: as §1

Nexturastat A = compound: CCCCN(Cc1ccc(C(=O)NO)cc1)C(=O)Nc1ccccc1 [Nexturastat A]
In short: as §1

vemurafenib = compound: CCCS(=O)(=O)Nc1ccc(F)c(C(=O)c2c[nH]c3ncc(-c4ccc(Cl)cc4)cc23)c1F [vemurafenib]
In short: as §1

[5] = compound: CCCS(=O)(=O)Nc1ccc(F)c(C(=O)c2c[nH]c3ncc(Cl)cc23)c1F
In short: as §1

[6] = compound: CCCc1cc(C)[nH]c(=O)c1CNC(=O)c1cc(-c2ccnc(N3CCN(C)CC3)c2)cc2c1cnn2C(C)C
In short: as §1

givinostat = compound: CCN(CC)Cc1ccc2cc(COC(=O)Nc3ccc(C(=O)NO)cc3)ccc2c1 [givinostat]
In short: as §1

barasertib = compound: CCN(CCCOc1ccc2c(Nc3cc(CC(=O)Nc4cccc(F)c4)[nH]n3)ncnc2c1)CCOP(=O)(O)O [barasertib]
In short: as §1

Target	log2 fold change [1]	log2 fold change [2]	log2 fold change [3]	log2 fold change [4]	log2 fold change (Nexturastat A)	log2 fold change (vemurafenib)	log2 fold change [5]	log2 fold change [6]	log2 fold change (givinostat)	log2 fold change (barasertib)
EXOSC5 (UniProt Q9NQT4)	inactive: 0.051	inactive: -0.007	inactive: 0.014	inactive: 0.002	inactive: 0.009	inactive: -0.007	inactive: -0.002	inactive: -0.004	inactive: -0.048	inactive: 0.01
F10 (UniProt P00742)	inactive: -0.016	inactive: 0.331		inactive: 0.118	inactive: 0.056	inactive: 0.085		inactive: -0.063	inactive: 0.067	inactive: -0.032
EPHA6 (UniProt Q9UF33)	inactive: -0.415	inactive: 0.391	inactive: -0.269	inactive: -0.264	inactive: 0.04	inactive: -0.656	inactive: -0.947	inactive: -0.501		inactive: 0.052
EZH2 isoform 2 (UniProt Q15910)	inactive: 0.063		inactive: 0.127	inactive: 0.149	inactive: -0.173	inactive: 0.377	inactive: 0	active: 0.949	inactive: 0.097	inactive: 0.045
FAM122B isoform 3 (UniProt Q7Z309)	inactive: -0.032	inactive: -0.03		inactive: -0.079	inactive: 0	inactive: 0.009		inactive: 0.1	inactive: 0.002	inactive: 0.01
EXD2 (UniProt Q9NVH0)	inactive: -0.088	inactive: 0.047	inactive: 0.061	inactive: -0.021	inactive: 0.221		inactive: 0.055		inactive: 0.094	
ERO1B (UniProt Q86YB8)	inactive: -0.107		inactive: -0.08	inactive: -0.071	inactive: -0.006	inactive: -0.109	inactive: -0.11	inactive: 0.194	inactive: 0.018	inactive: -0.083
ERF (UniProt P50548)	inactive: -0.551				inactive: 0.033				inactive: -0.133	
ERI1 (UniProt Q8IV48)		inactive: 0.036		inactive: -0.107	inactive: 0.287	inactive: -0.046		inactive: 0.077		
EPHB4 (UniProt P54760)	inactive: 0.057	inactive: -0.07	inactive: 0.392				inactive: -0.126	inactive: 0.001		
FAM204A (UniProt Q9H8W3)	inactive: -0.278				inactive: -0.036	inactive: -0.168		inactive: 0.069	inactive: -0.061	
FAM135A (UniProt Q9P2D6)	inactive: -0.178				active: 0.5	inactive: -0.042			inactive: 0.131	
ERCC1 isoform 3 (UniProt P07992)	inactive: 0.24	inactive: 0.069	inactive: -0.047				inactive: -0.412			
FAM172A (UniProt Q8WUF8)	inactive: -0.031				inactive: -0.133	inactive: -0.025		inactive: 0.04		inactive: 0.114
ESF1 (UniProt Q9H501)	inactive: -0.08	inactive: -0.101								inactive: -0.246
ERH (UniProt P84090)		inactive: -0.122	inactive: -0.084	inactive: 0.101	inactive: 0.117	inactive: 0.082	inactive: -0.059	inactive: 0	inactive: -0.018	inactive: -0.024
F2RL3 (UniProt Q96RI0)		inactive: 0.032	inactive: 0.053			inactive: -0.156	inactive: 0.035		inactive: -0.06	
ETF1 isoform 2 (UniProt P62495)		inactive: 0.135	inactive: -0.11			inactive: -0.269	inactive: -0.19			inactive: 0.097
FAM185A (UniProt Q8N0U4)		inactive: -0.046	inactive: -0.034	inactive: -0.15		inactive: -0.069	inactive: -0.062	inactive: -0.034	inactive: 0.107	inactive: 0.014
ERCC8 (UniProt Q13216)	inactive: -0.065	inactive: -0.027	inactive: 0.001	inactive: 0.038		inactive: -0.139	inactive: -0.143	inactive: -0.055	inactive: -0.007	inactive: -0.021

A stretch from the list above, for reference:
Target	log2 fold change [1]	log2 fold change [2]	log2 fold change [3]	log2 fold change [4]	log2 fold change (Nexturastat A)	log2 fold change (vemurafenib)	log2 fold change [5]	log2 fold change [6]	log2 fold change (givinostat)	log2 fold change (barasertib)
EZH2 isoform 2 (UniProt Q15910)	inactive: 0.063		inactive: 0.127	inactive: 0.149	inactive: -0.173	inactive: 0.377	inactive: 0	active: 0.949	inactive: 0.097	inactive: 0.045
FAM122B isoform 3 (UniProt Q7Z309)	inactive: -0.032	inactive: -0.03		inactive: -0.079	inactive: 0	inactive: 0.009		inactive: 0.1	inactive: 0.002	inactive: 0.01
